By UniProt entry, the sequences of proteins in these tests, tags left out. Residues count along the entry.
UniProt Q96KQ7, 913-1193 limits assumed: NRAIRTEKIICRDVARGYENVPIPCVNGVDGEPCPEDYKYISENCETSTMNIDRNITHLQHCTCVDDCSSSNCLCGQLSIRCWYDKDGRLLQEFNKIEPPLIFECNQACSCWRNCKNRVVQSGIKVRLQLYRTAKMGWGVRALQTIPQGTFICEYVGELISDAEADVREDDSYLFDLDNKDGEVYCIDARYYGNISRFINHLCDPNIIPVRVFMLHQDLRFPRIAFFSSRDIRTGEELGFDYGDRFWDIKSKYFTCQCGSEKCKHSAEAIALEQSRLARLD

Screen size: about 350,000 compounds; about 31,000 (8.9%) were called active. All entries are inconclusive by the source's own rule. Clear calls are listed elsewhere. Calls come from the whole dose curve; as a rule, active = well fitted inhibition curve with a large enough effect; inconclusive = small, poorly fitted or top-dose-only effect; inactive = no such curve, though single readings can be large or run the other way.
What follows are compounds tested against Histone-lysine N-methyltransferase EHMT2 (Homo sapiens) (UniProt Q96KQ7) (assay: qHTS Assay for Inhibitors of Histone Lysine Methyltransferase G9a). Conditions: G9a H3K9 monomethylation, AlphaScreen, 2 h.
With CN(C)CCS the Potency was inconclusive: 3.16 µM. For O=[N+]([O-])c1ccc2c(c1)C=Nc1ccccc1O2, the Potency was inconclusive: 79.4 µM. For CC1=NCCc2c1[nH]c1ccccc21.O=[N+]([O-])c1cc([N+](=O)[O-])c(O)c([N+](=O)[O-])c1, the Potency was inconclusive: 15.8 µM. For O=[N+]([O-])c1cc([N+](=O)[O-])c(-n2nnc3ccccc32)c([N+](=O)[O-])c1, the Potency was inconclusive: 50.1 µM. For CP(=O)(Nc1ccc(SC(F)(F)F)cc1)Oc1ccc(F)cc1 (stereo not given), the Potency was inconclusive: 100 µM. In the case of O=C(OCCN1CCN(CCOCc2ccccc2)CC1)C(O)(c1ccccc1)c1ccccc1, the Potency is reported as inconclusive: 17.8 µM. With O=[N+]([O-])c1cc([N+](=O)[O-])c(Nc2ccccn2)c([N+](=O)[O-])c1 the Potency was inconclusive: 79.4 µM. In the case of CN(C)CCOC(=O)C(O)(c1ccccc1)C1CCCC1 (stereo not given), the Potency is reported as inconclusive: 89.1 µM. In the case of CN(C)C(=O)c1c([N+](=O)[O-])cc([N+](=O)[O-])cc1[N+](=O)[O-], the Potency is reported as inconclusive: 3.55 µM. For CP(=O)(OC12CC3CC(CC(C3)C1)C2)OC12CC3CC(CC(C3)C1)C2, the Potency was inconclusive: 28.2 µM.

Reference: PubChem BioAssay AID504332 (National Center for Advancing Translational Sciences (NCATS), 2011)
Note: nearly all actives have a fitted effect of over 75% in size.
Potency is the fitted concentration of half-maximal effect.
